Assay results: the supplement of paper PMC10849652
The list shows a part of the results.

Protein sequences, listed by entry. Tags and fused reporters are not part of them. Lines headed by an entry give the natural chain unless they say otherwise; changes in a name come on top.
UniProt O95989: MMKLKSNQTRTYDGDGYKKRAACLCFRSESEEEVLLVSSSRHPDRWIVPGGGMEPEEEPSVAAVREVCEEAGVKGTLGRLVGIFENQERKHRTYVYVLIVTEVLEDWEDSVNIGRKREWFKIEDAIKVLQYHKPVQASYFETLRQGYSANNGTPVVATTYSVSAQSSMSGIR
UniProt P00480: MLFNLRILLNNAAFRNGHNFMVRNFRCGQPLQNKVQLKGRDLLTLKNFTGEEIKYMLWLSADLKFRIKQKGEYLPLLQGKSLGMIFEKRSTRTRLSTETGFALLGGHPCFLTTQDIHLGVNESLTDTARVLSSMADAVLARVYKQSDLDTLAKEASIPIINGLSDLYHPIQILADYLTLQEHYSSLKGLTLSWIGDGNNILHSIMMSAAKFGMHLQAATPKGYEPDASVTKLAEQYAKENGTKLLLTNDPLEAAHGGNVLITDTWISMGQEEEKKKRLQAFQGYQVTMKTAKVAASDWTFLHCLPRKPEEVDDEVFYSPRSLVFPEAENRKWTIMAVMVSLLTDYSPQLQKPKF
UniProt P37198: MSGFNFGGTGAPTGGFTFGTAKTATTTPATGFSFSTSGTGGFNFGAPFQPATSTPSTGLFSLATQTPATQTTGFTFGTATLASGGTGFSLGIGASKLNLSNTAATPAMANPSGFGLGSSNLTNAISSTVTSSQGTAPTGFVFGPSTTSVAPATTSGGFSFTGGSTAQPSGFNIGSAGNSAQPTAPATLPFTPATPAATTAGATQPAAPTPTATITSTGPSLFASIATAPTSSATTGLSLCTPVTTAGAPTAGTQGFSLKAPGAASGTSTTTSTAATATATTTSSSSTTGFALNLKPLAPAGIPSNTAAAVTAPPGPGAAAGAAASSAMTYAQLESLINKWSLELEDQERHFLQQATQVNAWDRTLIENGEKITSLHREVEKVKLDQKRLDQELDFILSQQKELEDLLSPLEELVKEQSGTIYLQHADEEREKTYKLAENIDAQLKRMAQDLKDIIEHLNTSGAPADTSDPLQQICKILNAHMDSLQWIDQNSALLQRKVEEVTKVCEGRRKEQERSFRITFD
UniProt P55809: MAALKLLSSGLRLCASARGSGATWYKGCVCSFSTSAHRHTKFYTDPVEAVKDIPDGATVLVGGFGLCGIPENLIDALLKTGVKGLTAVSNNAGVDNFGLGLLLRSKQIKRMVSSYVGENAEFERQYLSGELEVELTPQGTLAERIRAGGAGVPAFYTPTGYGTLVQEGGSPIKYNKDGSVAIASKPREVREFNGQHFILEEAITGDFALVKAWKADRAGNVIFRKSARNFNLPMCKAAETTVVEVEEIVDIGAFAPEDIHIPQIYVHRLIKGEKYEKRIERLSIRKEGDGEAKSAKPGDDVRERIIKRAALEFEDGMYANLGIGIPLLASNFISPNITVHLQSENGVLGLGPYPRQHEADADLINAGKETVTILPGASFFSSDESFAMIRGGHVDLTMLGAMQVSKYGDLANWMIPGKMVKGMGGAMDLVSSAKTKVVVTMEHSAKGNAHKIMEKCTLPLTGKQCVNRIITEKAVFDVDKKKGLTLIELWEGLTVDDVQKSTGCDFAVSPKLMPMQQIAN
UniProt Q9NX40: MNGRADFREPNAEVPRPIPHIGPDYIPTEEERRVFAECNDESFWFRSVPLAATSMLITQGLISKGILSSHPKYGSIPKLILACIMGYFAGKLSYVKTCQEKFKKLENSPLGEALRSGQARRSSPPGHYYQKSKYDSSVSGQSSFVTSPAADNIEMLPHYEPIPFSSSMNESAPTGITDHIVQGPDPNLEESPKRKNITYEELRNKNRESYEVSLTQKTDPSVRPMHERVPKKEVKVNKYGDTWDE
UniProt Q7Z3B4: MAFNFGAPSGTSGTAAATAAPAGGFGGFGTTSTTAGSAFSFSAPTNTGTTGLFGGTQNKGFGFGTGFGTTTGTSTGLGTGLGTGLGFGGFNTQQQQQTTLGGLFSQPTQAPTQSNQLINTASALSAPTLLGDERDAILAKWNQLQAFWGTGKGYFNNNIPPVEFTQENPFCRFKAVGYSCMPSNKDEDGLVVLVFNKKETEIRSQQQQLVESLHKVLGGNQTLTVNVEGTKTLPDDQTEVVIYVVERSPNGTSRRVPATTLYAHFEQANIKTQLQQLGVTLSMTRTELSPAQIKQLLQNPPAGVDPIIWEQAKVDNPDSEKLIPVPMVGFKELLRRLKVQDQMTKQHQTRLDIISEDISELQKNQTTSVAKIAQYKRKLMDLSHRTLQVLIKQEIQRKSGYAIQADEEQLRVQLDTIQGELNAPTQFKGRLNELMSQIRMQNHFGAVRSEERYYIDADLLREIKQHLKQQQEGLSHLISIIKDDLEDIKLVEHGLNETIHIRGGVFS
UniProt P80303: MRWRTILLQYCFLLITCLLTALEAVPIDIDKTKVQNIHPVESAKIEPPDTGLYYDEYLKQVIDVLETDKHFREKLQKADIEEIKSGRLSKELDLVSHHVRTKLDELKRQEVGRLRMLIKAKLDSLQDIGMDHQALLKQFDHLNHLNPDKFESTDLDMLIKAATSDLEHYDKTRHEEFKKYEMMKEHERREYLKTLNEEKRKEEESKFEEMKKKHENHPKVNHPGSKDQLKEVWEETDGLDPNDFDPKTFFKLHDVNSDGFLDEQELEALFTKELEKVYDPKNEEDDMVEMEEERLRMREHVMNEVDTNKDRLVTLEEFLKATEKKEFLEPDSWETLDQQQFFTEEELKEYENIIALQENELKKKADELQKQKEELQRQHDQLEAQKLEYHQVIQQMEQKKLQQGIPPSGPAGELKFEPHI
UniProt Q96HP4: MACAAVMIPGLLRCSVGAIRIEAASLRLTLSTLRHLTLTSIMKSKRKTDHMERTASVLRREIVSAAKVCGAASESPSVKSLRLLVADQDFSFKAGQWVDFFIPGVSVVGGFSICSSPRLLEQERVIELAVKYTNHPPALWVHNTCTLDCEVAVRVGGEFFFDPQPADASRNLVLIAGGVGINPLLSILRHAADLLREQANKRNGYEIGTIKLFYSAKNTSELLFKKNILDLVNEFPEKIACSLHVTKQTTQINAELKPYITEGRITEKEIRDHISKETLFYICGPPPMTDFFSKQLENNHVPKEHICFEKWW
UniProt Q5SWX8: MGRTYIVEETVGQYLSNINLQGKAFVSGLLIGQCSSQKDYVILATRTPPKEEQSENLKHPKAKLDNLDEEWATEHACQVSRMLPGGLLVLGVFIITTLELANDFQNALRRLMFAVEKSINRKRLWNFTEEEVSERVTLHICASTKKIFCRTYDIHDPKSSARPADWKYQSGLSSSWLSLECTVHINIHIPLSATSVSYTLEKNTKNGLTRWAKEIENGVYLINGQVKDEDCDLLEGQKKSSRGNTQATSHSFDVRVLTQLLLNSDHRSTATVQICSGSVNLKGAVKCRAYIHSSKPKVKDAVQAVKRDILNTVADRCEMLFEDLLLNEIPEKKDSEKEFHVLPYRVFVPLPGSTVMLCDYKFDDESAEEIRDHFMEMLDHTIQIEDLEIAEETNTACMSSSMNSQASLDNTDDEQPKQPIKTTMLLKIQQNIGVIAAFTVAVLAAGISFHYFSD
UniProt Q9Y266: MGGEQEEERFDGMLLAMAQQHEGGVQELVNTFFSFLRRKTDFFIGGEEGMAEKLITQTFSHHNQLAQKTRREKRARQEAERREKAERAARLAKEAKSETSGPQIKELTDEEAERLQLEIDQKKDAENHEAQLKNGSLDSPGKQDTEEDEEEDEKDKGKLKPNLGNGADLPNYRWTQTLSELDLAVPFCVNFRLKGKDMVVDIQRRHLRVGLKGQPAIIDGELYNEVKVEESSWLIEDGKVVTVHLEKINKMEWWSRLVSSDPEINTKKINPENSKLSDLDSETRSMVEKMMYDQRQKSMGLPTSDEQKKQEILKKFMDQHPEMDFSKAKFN
UniProt Q7Z417: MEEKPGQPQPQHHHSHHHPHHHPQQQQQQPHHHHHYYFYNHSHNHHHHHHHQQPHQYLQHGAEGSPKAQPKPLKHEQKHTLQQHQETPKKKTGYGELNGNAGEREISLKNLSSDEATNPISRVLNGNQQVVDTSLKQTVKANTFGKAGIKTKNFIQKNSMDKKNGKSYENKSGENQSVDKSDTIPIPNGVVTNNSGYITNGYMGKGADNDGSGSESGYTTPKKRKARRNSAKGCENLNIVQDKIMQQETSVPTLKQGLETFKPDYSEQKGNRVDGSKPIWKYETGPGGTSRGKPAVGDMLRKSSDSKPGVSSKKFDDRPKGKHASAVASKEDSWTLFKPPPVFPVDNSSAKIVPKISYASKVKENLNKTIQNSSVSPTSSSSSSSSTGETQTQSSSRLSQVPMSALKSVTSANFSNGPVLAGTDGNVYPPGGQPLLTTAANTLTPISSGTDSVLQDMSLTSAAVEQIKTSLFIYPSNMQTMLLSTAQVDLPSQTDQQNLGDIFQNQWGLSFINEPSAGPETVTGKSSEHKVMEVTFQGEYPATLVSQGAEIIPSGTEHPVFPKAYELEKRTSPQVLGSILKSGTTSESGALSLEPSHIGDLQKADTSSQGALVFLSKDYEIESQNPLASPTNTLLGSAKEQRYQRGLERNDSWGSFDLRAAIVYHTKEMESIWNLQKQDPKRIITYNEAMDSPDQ
UniProt Q9BVL2: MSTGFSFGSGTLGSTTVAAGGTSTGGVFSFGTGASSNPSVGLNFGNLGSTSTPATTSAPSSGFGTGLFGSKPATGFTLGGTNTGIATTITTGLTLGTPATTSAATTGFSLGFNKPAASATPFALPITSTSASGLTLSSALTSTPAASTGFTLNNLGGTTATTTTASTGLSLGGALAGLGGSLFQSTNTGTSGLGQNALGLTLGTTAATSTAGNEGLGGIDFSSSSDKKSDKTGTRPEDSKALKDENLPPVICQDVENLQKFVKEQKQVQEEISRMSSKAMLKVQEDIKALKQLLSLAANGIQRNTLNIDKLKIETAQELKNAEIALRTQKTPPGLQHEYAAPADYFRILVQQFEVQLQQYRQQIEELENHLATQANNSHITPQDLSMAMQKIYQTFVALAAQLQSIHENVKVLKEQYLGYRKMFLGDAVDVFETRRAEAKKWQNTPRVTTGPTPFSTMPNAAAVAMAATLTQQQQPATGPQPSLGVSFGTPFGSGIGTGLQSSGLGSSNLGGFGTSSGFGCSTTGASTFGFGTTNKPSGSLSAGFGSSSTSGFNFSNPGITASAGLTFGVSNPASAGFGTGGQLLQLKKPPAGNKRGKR
UniProt O60502: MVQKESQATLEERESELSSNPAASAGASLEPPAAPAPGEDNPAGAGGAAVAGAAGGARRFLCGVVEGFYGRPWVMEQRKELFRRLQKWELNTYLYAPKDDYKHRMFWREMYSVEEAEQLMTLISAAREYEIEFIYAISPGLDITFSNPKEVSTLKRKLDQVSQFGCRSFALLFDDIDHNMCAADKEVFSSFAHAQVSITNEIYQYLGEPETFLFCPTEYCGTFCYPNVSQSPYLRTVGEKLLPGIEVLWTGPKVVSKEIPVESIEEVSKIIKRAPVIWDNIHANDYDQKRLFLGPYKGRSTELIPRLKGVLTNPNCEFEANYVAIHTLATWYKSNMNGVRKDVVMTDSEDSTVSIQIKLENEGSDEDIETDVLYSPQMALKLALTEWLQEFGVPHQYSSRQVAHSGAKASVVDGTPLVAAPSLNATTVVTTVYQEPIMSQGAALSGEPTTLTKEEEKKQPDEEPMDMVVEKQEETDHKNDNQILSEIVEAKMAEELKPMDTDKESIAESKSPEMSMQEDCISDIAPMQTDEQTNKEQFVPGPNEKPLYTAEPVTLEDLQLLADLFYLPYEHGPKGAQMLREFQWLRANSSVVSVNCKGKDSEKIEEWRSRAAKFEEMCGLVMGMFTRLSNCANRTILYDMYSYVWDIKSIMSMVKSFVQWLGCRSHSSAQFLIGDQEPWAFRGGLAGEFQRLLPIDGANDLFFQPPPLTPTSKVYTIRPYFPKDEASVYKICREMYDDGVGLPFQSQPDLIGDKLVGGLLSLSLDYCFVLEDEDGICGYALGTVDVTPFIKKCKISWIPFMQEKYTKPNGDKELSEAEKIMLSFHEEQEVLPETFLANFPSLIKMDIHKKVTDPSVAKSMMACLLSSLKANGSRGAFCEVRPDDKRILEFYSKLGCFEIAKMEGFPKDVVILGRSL
UniProt Q9BQG2: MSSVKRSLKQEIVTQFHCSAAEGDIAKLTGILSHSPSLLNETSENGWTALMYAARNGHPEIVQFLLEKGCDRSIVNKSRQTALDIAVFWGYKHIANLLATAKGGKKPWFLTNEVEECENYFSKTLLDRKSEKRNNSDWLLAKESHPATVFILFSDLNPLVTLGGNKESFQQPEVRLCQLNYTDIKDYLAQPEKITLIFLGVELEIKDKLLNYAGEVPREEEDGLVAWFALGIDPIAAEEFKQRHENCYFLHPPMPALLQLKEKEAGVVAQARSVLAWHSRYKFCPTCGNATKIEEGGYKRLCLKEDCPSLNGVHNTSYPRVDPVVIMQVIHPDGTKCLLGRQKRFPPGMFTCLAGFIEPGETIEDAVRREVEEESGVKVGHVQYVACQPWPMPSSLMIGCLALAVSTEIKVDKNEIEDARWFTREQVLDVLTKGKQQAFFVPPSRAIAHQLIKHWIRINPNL

Tests used:
Experiment in all cases: log2 fold change, soluble protein after heating vs DMSO (PISA); higher = thermal stabilisation; K562 cells, 10 uM, 30 min; active = over 0.2 and 3.5 SD of the protein, either way, in both replicates (recomputed)
[1] = compound: COC1=CC=C(C=C1)CN2C=CC3=C2C=C(C=C3)C(=O)NO
Outline: (§1)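 K562 cells at 2×10^6 cells/mL were treated with 10 μM compound for 30 min. Aliquots were heated for 3 min across 48°C-58°C, pooled, and extracted in PBS with 0.5% NP-40 at 4°C; soluble protein was the supernatant after 21,000xg for 90 min. Soluble protein was quantified by TMTpro 16plex LC-MS/MS with channel sums equalised, and reported as log2 fold change in thermal stability against DMSO controls, with values from duplicates.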

filanesib = compound: CON(C)C(=O)N1N=C(c2cc(F)ccc2F)S[C@@]1(CCCN)c1ccccc1 [filanesib]
Outline: as §1

zotarolimus = compound: CO[C@H]1C[C@@H]2CC[C@@H](C)[C@@](O)(O2)C(=O)C(=O)N2CCCC[C@H]2C(=O)O[C@H]([C@H](C)C[C@@H]2CC[C@H](n3cnnn3)[C@H](OC)C2)CC(=O)[C@H](C)/C=C(\C)[C@@H](O)[C@@H](OC)C(=O)[C@H](C)C[C@H](C)/C=C/C=C/C=C/1C [zotarolimus]
Outline: as §1

idasanutlin = compound: COc1cc(C(=O)O)ccc1NC(=O)[C@@H]1N[C@@H](CC(C)(C)C)[C@](C#N)(c2ccc(Cl)cc2F)[C@H]1c1cccc(Cl)c1F [idasanutlin]
Outline: as §1

alisertib = compound: COc1cc(Nc2ncc3c(n2)-c2ccc(Cl)cc2C(c2c(F)cccc2OC)=NC3)ccc1C(=O)O [alisertib]
Outline: as §1

[2] = compound: COc1cc2nc(-c3cc(F)ccc3O)nc(N[C@@H]3CNC[C@H]3C(C)(C)O)c2cc1OC
Outline: as §1

gefitinib = compound: COc1cc2ncnc(Nc3ccc(F)c(Cl)c3)c2cc1OCCCN1CCOCC1 [gefitinib]
Outline: as §1

[3] = compound: COc1cccc2cc(-c3nc([C@H]4CC[C@H](C(=O)O)CC4)n4ncnc(N)c34)[nH]c12
Outline: as §1

lapatinib = compound: CS(=O)(=O)CCNCc1ccc(-c2ccc3ncnc(Nc4ccc(OCc5cccc(F)c5)c(Cl)c4)c3c2)o1 [lapatinib]
Outline: as §1

pictilisib = compound: CS(=O)(=O)N1CCN(Cc2cc3nc(-c4cccc5[nH]ncc45)nc(N4CCOCC4)c3s2)CC1 [pictilisib]
Outline: as §1

[4] = compound: CS(=O)(=O)c1ccc(-c2cnc(N)c(C(=O)Nc3ccccc3)n2)cc1
Outline: as §1

crizotinib = compound: C[C@@H](Oc1cc(-c2cnn(C3CCNCC3)c2)cnc1N)c1c(Cl)ccc(F)c1Cl [crizotinib]
Outline: as §1

[5] = compound: C[C@@H]1COCCN1C2=NC(=NC(=C2)C3(CC3)S(=O)(=O)C)C4=C5C=CNC5=CC=C4
Outline: as §1

[6] = compound: C[C@H](C1=CC=C(C=C1)C(=O)NC2=C3C=CNC3=NC=C2)N
Outline: as §1

duvelisib = compound: C[C@H](Nc1ncnc2nc[nH]c12)c1cc2cccc(Cl)c2c(=O)n1-c1ccccc1 [duvelisib]
Outline: as §1

gandotinib = compound: Cc1cc(Nc2cc(CN3CCOCC3)c3nc(C)c(Cc4ccc(Cl)cc4F)n3n2)n[nH]1 [gandotinib]
Outline: as §1

tozasertib = compound: Cc1cc(Nc2cc(N3CCN(C)CC3)nc(Sc3ccc(NC(=O)C4CC4)cc3)n2)n[nH]1 [tozasertib]
Outline: as §1

[7] = compound: Cc1cc(SCc2sc(-c3ccc(C(F)(F)F)cc3)nc2C)ccc1OCC(=O)O
Outline: as §1

doramapimod = compound: Cc1ccc(-n2nc(C(C)(C)C)cc2NC(=O)Nc2ccc(OCCN3CCOCC3)c3ccccc23)cc1 [doramapimod]
Outline: as §1

ispinesib = compound: Cc1ccc(C(=O)N(CCCN)[C@@H](c2nc3cc(Cl)ccc3c(=O)n2Cc2ccccc2)C(C)C)cc1 [ispinesib]
Outline: as §1

Measured: log2 fold change

NUDT3 (UniProt O95989)
inactive: [1] -0.019 | filanesib -0.019 | zotarolimus 0.011 | idasanutlin -0.041 | alisertib -0.084 | [2] 0.025 | gefitinib -0.003 | [3] 0.062 | lapatinib -0.093 | pictilisib -0.077 | [4] 0.031 | crizotinib 0.042 | [5] 0.006 | [6] -0.104 | duvelisib 0.032 | gandotinib -0.075 | tozasertib -0.061 | [7] -0.064 | doramapimod 0.012 | ispinesib 0.015

OTC (UniProt P00480)
inactive: [1] -0.304 | filanesib 0.03 | zotarolimus -0.209 | idasanutlin -0.019 | alisertib 0.618 | [2] 0.285 | gefitinib 0.038 | [3] 0.237 | lapatinib -0.381 | pictilisib 0.259 | [4] 0 | crizotinib 0.038 | [5] 0.147 | [6] 0.346 | duvelisib 0.25 | gandotinib -0.115 | tozasertib -0.119 | [7] -0.088 | doramapimod 0.006 | ispinesib -0.166

NUP62 (UniProt P37198)
inactive: [1] 0.009 | filanesib 0.001 | zotarolimus 0.008 | idasanutlin -0.001 | alisertib -0.04 | [2] 0.039 | gefitinib -0.035 | [3] -0.058 | lapatinib 0.006 | pictilisib 0.092 | [4] -0.002 | crizotinib -0.018 | [5] -0.013 | [6] 0.028 | duvelisib -0.012 | gandotinib -0.029 | tozasertib 0.042 | [7] 0.067 | doramapimod 0.008 | ispinesib -0.025

Random excerpt: two entries already listed, in no set order.
NUP62 (UniProt P37198)
inactive: [1] 0.009 | filanesib 0.001 | zotarolimus 0.008 | idasanutlin -0.001 | alisertib -0.04 | [2] 0.039 | gefitinib -0.035 | [3] -0.058 | lapatinib 0.006 | pictilisib 0.092 | [4] -0.002 | crizotinib -0.018 | [5] -0.013 | [6] 0.028 | duvelisib -0.012 | gandotinib -0.029 | tozasertib 0.042 | [7] 0.067 | doramapimod 0.008 | ispinesib -0.025

OTC (UniProt P00480)
inactive: [1] -0.304 | filanesib 0.03 | zotarolimus -0.209 | idasanutlin -0.019 | alisertib 0.618 | [2] 0.285 | gefitinib 0.038 | [3] 0.237 | lapatinib -0.381 | pictilisib 0.259 | [4] 0 | crizotinib 0.038 | [5] 0.147 | [6] 0.346 | duvelisib 0.25 | gandotinib -0.115 | tozasertib -0.119 | [7] -0.088 | doramapimod 0.006 | ispinesib -0.166

Later entries.

OXCT1 (UniProt P55809)
inactive: [1] 0.08 | filanesib -0.094 | zotarolimus 0.021 | idasanutlin -0.033 | alisertib -0.041 | [2] 0.045 | gefitinib 0.035 | [3] 0.018 | lapatinib 0.012 | pictilisib 0.009 | [4] 0.015 | crizotinib 0.101 | [5] 0.067 | [6] -0.063 | duvelisib -0.004 | gandotinib -0.02 | tozasertib 0.022 | [7] -0.017 | doramapimod -0.003 | ispinesib 0.125

OCIAD1 (UniProt Q9NX40)
inactive: [1] 0.054 | filanesib -0.047 | zotarolimus 0.041 | idasanutlin 0.031 | alisertib -0.027 | [2] -0.1 | gefitinib 0.005 | [3] 0.041 | lapatinib -0.031 | pictilisib 0.084 | [4] -0.003 | crizotinib -0.018 | [5] 0.185 | [6] -0.088 | duvelisib 0.01 | gandotinib 0.056 | tozasertib -0.016 | [7] -0.029 | doramapimod -0.025 | ispinesib -0.031

NUP54 (UniProt Q7Z3B4)
inactive: [1] 0.077 | filanesib -0.064 | zotarolimus 0.002 | idasanutlin -0.03 | alisertib 0.016 | [2] 0.065 | gefitinib -0.015 | [3] -0.011 | lapatinib -0.022 | pictilisib -0.005 | [4] 0.015 | crizotinib -0.043 | [5] 0.019 | [6] 0.013 | duvelisib -0.011 | gandotinib -0.023 | tozasertib -0.038 | [7] 0.044 | doramapimod 0.015 | ispinesib -0.049

OMA1 (UniProt Q96E52)
inactive: [1] 0.087 | filanesib -0.046 | zotarolimus -0.019 | idasanutlin -0.046 | alisertib -0.064 | [2] -0.101 | gefitinib -0.009 | [3] -0.033 | lapatinib -0.007 | pictilisib 0.126 | [4] 0.121 | crizotinib 0.027 | [5] 0.006 | [6] -0.023 | duvelisib 0.036 | gandotinib -0.172 | tozasertib -0.049 | [7] 0.029 | doramapimod -0.067 | ispinesib -0.018

NUCB2 (UniProt P80303)
inactive: [1] -0.011 | filanesib -0.007 | zotarolimus -0.063 | idasanutlin -0.008 | alisertib -0.045 | [2] 0.025 | gefitinib 0.01 | [3] 0.038 | lapatinib -0.033 | pictilisib 0.029 | [4] 0.014 | crizotinib 0.062 | [5] -0.001 | [6] -0.026 | duvelisib 0.003 | gandotinib 0.014 | tozasertib -0.021 | [7] -0.059 | doramapimod -0.007 | ispinesib 0.019

OXNAD1 (UniProt Q96HP4)
inactive: [1] -0.001 | filanesib 0.019 | zotarolimus 0.05 | idasanutlin -0.04 | alisertib -0.016 | [2] 0.109 | gefitinib 0.051 | [3] 0.026 | lapatinib 0.007 | pictilisib 0.065 | [4] -0.002 | crizotinib 0.138 | [5] -0.016 | [6] 0.042 | duvelisib 0.045 | gandotinib -0.012 | tozasertib -0.013 | [7] -0.001 | doramapimod 0.019 | ispinesib 0.098

ODR4 (UniProt Q5SWX8)
inactive: [1] -0.023 | filanesib 0.02 | zotarolimus 0.02 | idasanutlin -0.022 | alisertib -0.018 | [2] 0.157 | gefitinib 0.037 | [3] -0.05 | lapatinib 0.024 | pictilisib 0.074 | [4] 0.073 | crizotinib -0.028 | [5] -0.009 | [6] 0.055 | duvelisib 0.002 | gandotinib 0.035 | tozasertib 0.025 | [7] 0.084 | doramapimod 0.01 | ispinesib 0.03

NUDC (UniProt Q9Y266)
inactive: [1] -0.013 | filanesib -0.041 | zotarolimus 0.04 | idasanutlin -0.025 | alisertib -0.028 | [2] 0.016 | gefitinib 0.012 | [3] 0.026 | lapatinib -0.013 | pictilisib 0.004 | [4] 0.048 | crizotinib -0.034 | [5] 0.085 | [6] -0.037 | duvelisib 0.004 | gandotinib -0.074 | tozasertib -0.012 | [7] 0.011 | doramapimod 0.007 | ispinesib -0.006

NUFIP2 (UniProt Q7Z417)
inactive: [1] 0.018 | filanesib 0.111 | zotarolimus -0.073 | idasanutlin 0.128 | alisertib -0.094 | [2] -0.049 | gefitinib -0.012 | [3] -0.027 | lapatinib 0.03 | pictilisib -0.085 | [4] -0.042 | crizotinib -0.025 | [5] -0.137 | [6] 0.089 | duvelisib -0.11 | gandotinib 0.118 | tozasertib -0.02 | [7] -0.041 | doramapimod 0.11 | ispinesib -0.088

NUP58 (UniProt Q9BVL2)
inactive: [1] -0.034 | filanesib -0.021 | zotarolimus -0.021 | idasanutlin -0.123 | alisertib -0.055 | [2] 0.127 | gefitinib 0.007 | [3] 0.009 | lapatinib 0.014 | pictilisib 0.013 | [4] 0.034 | crizotinib 0.009 | [5] -0.017 | [6] 0.026 | duvelisib -0.021 | gandotinib -0.053 | tozasertib -0.009 | [7] -0.043 | doramapimod -0.009 | ispinesib -0.01

OGT (UniProt O15294)
inactive: [1] -0.006 | filanesib -0.01 | zotarolimus 0.038 | idasanutlin -0.01 | alisertib 0.002 | [2] 0.059 | gefitinib 0.004 | [3] -0.022 | lapatinib -0.022 | pictilisib -0.012 | [4] 0.028 | crizotinib 0.01 | [5] 0.003 | [6] 0.014 | duvelisib 0.019 | gandotinib -0.016 | tozasertib 0.012 | [7] 0.049 | doramapimod -0.007 | ispinesib 0.041

OGA (UniProt O60502)
inactive: [1] 0.01 | filanesib 0.046 | zotarolimus 0.004 | idasanutlin -0.027 | alisertib -0.041 | [2] 0.06 | gefitinib 0.058 | [3] 0.017 | lapatinib -0.042 | pictilisib 0.061 | [4] 0.065 | crizotinib -0.018 | [5] 0.08 | [6] -0.192 | duvelisib 0.05 | gandotinib -0.037 | tozasertib 0.015 | [7] 0.006 | doramapimod -0.005 | ispinesib 0.027

NUDT12 (UniProt Q9BQG2)
inactive: [1] 0.035 | filanesib -0.01 | zotarolimus 0.019 | idasanutlin -0.056 | alisertib -0.071 | [2] 0.03 | gefitinib 0.05 | [3] -0.008 | lapatinib 0.03 | pictilisib 0.058 | [4] 0.048 | crizotinib 0.08 | [5] 0.092 | [6] -0.004 | duvelisib 0.022 | gandotinib 0.045 | tozasertib 0.009 | [7] 0.02 | doramapimod -0.079 | ispinesib 0.034
